Laboratory results reported in patent US7067646.
Results are given in words; binding and its absence hold for the method and conditions named. In cells and extracts the contact can be indirect. Some entries that bind do so weakly or less than the wild type. For part of these data: Sequences can lack the tags named with a protein. Each block holds one substance with its values, some of them ahead of it.

Chains of the proteins cited; added tags and fusions are not shown. Lines headed by an entry give the natural chain unless they say otherwise; changes in a name come on top. Residues count along the entry.
UniProt Q5T4S7: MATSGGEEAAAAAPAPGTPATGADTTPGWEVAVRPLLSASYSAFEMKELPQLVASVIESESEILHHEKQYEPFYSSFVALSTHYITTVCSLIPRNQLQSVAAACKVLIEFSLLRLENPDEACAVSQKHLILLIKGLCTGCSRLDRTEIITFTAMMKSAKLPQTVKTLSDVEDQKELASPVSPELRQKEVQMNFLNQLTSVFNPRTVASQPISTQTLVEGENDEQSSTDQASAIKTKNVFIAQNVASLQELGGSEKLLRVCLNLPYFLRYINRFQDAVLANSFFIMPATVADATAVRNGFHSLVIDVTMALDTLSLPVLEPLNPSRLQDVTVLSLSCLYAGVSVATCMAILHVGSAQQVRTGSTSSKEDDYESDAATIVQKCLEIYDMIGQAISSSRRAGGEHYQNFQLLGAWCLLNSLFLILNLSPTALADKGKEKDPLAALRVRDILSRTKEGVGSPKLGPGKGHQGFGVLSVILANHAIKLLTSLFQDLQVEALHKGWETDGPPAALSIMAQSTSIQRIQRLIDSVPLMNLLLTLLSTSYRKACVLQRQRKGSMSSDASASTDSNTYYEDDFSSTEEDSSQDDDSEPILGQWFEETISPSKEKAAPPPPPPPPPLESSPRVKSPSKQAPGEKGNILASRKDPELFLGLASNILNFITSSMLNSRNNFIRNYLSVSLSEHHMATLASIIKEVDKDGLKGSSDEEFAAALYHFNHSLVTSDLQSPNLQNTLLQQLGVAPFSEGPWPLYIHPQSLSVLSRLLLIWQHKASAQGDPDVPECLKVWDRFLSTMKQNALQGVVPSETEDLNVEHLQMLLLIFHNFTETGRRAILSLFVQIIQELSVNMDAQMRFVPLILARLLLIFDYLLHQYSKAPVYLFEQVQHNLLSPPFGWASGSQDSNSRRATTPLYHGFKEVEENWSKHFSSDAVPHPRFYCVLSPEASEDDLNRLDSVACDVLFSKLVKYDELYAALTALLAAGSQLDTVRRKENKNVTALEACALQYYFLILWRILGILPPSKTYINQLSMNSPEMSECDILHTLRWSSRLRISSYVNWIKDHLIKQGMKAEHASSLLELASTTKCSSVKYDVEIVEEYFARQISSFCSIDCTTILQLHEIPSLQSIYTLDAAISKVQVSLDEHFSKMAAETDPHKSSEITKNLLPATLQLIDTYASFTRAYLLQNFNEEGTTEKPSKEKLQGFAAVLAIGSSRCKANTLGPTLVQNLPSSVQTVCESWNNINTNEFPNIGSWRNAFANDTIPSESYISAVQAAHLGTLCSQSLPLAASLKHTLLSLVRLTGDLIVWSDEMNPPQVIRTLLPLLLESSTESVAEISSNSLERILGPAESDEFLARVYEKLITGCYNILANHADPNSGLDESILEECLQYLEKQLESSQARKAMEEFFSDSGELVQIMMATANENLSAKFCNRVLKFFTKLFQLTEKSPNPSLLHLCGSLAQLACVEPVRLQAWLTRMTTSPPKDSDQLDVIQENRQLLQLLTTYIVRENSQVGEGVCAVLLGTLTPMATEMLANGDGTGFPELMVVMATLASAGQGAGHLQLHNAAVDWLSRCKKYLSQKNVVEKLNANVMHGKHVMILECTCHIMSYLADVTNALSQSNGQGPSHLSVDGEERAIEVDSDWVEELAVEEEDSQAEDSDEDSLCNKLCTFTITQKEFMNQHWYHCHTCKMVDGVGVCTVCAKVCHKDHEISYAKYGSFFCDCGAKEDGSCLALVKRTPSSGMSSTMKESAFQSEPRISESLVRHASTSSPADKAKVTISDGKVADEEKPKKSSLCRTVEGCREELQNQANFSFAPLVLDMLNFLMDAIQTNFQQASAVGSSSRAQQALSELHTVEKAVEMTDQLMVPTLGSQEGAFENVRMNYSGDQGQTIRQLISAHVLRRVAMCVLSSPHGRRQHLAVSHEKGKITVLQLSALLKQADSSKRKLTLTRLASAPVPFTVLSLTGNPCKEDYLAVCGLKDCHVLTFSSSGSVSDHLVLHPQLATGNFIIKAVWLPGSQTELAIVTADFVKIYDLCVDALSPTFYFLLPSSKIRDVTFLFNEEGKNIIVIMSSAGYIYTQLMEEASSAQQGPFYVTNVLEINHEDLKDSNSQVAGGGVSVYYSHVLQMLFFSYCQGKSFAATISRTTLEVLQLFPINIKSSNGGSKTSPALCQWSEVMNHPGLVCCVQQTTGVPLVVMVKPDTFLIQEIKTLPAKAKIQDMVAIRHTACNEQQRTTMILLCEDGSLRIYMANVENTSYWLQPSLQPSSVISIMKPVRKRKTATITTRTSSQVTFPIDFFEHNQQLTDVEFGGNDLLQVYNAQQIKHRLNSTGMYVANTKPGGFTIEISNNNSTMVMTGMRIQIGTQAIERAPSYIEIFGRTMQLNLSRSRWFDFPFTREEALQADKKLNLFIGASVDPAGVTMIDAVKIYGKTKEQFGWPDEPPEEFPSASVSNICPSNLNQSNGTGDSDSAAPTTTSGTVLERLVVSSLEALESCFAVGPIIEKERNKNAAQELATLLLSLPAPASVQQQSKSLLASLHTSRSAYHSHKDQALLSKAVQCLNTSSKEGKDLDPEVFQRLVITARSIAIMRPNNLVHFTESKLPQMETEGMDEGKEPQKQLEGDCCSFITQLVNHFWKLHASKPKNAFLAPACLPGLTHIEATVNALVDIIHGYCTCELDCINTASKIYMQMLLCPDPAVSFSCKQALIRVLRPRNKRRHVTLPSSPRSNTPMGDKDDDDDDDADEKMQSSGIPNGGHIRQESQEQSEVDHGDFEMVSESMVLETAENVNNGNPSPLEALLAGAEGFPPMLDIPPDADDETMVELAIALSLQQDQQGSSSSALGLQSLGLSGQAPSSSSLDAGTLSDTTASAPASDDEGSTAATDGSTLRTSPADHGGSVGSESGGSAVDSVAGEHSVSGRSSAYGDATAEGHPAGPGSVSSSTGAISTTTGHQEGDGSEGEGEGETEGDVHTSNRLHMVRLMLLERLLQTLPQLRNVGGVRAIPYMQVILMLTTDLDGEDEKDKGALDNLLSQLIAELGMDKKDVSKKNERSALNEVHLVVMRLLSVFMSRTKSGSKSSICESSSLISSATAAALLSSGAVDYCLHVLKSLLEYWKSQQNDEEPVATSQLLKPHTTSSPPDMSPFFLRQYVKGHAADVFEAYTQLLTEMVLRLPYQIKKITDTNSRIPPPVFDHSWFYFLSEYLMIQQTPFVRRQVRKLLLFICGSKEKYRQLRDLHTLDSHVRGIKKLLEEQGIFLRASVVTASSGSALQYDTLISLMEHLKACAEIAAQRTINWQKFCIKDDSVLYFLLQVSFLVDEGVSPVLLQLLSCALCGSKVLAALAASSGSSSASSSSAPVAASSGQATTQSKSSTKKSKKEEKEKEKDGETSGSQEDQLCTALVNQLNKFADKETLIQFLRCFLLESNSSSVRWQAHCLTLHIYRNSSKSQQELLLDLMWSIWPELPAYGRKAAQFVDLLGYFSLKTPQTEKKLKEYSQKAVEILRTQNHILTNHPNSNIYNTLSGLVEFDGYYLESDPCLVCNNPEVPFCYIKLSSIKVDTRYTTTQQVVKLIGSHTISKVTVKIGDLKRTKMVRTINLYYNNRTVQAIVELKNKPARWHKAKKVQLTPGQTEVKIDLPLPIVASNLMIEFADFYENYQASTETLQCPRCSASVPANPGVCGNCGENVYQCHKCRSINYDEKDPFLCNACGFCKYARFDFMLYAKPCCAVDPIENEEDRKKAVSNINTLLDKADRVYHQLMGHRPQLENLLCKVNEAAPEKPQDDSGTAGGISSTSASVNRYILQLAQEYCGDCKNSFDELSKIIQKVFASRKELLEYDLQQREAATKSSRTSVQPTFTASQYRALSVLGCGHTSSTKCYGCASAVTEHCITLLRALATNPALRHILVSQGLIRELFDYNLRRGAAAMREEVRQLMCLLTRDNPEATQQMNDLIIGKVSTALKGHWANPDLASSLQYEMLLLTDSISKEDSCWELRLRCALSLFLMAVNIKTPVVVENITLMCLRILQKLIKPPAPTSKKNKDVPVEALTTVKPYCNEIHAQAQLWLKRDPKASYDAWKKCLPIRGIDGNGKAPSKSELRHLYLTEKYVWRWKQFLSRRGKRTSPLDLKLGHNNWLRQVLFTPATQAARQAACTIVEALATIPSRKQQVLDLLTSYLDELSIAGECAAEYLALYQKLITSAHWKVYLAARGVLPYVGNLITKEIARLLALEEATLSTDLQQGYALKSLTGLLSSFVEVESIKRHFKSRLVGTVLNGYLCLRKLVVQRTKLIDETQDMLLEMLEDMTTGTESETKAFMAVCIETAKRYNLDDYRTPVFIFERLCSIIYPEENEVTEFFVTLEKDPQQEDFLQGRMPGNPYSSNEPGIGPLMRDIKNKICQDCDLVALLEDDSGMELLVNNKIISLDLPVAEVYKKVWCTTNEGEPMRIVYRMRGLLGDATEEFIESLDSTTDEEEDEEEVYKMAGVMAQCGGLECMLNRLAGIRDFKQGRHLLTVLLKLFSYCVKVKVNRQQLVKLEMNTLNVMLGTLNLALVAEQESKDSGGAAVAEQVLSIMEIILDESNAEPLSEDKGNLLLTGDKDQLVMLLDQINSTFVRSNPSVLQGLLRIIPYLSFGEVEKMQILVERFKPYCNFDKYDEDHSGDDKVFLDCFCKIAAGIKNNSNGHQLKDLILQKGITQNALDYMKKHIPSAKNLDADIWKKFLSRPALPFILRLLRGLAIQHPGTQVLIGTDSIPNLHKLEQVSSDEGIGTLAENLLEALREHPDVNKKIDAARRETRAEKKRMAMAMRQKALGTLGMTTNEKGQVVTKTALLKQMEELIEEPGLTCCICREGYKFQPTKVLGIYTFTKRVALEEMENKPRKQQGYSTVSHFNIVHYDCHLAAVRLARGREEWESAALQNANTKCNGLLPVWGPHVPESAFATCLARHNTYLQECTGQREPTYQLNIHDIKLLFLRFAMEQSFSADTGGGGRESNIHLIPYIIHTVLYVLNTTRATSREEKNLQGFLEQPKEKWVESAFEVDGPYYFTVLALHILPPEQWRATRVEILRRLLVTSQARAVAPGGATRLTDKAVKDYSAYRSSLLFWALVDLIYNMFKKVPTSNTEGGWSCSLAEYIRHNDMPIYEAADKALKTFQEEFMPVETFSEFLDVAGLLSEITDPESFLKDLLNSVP
UniProt P03129: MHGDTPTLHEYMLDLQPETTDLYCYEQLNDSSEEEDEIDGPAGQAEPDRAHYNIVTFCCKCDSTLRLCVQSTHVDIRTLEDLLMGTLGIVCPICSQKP
UniProt Q08999, residues 417-1139: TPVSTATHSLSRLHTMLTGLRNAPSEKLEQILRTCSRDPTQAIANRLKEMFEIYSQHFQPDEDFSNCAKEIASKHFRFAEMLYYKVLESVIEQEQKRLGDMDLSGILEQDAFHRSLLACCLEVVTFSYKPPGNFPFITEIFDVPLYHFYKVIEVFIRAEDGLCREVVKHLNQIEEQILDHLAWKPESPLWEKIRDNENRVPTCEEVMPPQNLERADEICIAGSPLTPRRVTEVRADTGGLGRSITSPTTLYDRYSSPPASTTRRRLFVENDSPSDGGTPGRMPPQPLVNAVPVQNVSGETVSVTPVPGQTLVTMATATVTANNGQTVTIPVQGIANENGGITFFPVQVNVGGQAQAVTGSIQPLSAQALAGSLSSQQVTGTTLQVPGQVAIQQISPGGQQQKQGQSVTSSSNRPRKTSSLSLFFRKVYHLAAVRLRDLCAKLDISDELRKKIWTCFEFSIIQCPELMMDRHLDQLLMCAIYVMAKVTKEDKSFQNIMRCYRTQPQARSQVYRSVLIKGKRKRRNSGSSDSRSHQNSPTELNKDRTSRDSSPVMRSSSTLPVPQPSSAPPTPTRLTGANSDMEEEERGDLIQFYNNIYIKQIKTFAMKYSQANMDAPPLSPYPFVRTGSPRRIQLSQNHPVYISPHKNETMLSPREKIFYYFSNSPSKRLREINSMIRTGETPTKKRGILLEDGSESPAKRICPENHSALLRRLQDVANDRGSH

What was measured:
[1] = target: T1, GST-RB (379-928) (UniProt P06400); experiment: GST-RB (379-928) pre-incubated with E7, GST pull-down, SDS-PAGE with Coomassie stain
T1 sequence (looked up): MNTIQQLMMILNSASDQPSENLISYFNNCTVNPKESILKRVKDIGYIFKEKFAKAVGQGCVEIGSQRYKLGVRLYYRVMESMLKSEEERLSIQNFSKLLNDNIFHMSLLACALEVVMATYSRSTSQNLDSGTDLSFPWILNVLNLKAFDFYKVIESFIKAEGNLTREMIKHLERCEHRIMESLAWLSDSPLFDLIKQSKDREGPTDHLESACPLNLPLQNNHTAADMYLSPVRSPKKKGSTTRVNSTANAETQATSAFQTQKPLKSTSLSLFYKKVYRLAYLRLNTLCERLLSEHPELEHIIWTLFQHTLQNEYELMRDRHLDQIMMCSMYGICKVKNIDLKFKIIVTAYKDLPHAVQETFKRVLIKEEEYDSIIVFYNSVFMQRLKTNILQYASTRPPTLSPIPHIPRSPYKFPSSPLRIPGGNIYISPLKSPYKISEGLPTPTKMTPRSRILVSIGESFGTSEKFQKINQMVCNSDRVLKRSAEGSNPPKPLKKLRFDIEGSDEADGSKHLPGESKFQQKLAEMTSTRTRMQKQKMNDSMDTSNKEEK

[2] = target: T1, GST-RB (379-928); experiment: GST-RB (379-928) pull-down of His-tagged fragment from E. coli; binding almost stoichiometric judging from the Coomassie-stained gel
[3] = target: T2, full-length RB with HA epitope tag (pTB701), exogenously expressed (UniProt P06400); experiment: co-immunoprecipitation from transfected COS-7 cells
T2 sequence (looked up): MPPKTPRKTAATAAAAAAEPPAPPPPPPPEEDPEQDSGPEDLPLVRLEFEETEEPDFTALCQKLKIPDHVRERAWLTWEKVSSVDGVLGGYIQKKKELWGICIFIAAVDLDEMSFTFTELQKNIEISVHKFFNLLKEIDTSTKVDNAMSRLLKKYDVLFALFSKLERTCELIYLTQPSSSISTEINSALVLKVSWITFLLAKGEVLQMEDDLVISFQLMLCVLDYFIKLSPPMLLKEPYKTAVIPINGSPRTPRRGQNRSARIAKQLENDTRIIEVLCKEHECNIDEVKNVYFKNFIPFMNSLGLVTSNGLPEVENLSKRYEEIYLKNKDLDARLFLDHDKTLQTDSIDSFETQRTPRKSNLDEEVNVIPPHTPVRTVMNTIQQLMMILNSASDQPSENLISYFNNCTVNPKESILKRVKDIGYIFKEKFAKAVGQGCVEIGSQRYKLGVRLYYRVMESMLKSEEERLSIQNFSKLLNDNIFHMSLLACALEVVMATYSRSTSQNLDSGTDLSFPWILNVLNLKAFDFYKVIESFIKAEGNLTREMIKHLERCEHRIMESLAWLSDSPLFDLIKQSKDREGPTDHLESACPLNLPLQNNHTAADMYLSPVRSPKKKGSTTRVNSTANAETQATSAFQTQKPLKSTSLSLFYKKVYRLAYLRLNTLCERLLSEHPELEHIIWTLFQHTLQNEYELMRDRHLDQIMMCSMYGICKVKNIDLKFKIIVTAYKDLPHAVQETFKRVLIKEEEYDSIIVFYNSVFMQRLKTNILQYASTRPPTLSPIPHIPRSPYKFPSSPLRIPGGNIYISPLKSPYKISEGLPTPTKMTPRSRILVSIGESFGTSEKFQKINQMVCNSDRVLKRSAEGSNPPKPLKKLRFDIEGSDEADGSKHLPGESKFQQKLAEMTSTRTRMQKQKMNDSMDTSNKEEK

[4] = target: T1, GST-RB (379-928); experiment: GST-RB (379-928) pull-down from extract of transfected COS-7 cells, anti-FLAG immunoblot
[5] = target: MTAF600 (microtubule associated factor 600) (human) (UniProt Q5T4S7); experiment: GST pull-down from HeLa nuclear extract, anti-MTAF600 immunoblot
[6] = target: MTAF600 (microtubule associated factor 600) (human) (UniProt Q5T4S7); experiment: GST pull-down of large pocket domains, immunoblot

Substance: recombinant HPV-16 E7 (His-tagged) (from UniProt P03129 1-98)
binding [1]: binds

binding [2]: binds
Substance: His-tagged MTAF600 (4293-4534) (from UniProt Q5T4S7 4293-4534)

binding [3]: binds
binding [4]: binds
Substance: FLAG-tagged MTAF600 (3910-4851) (from UniProt Q5T4S7 3910-4851)

binding [5]: binds
binding [6]: binds
Substance: GST fusion of the large pocket domain of p130 (from UniProt Q08999 417-1139)
